Literature values in patent US11707436B2, “Methods of treating inflammatory disorders and global inflammation with compositions comprising phospholipid nanoparticle encapsulations of NSAIDS” (NanoSphere Health Sciences, LLC, priority 2014, dated 2023).

Key:
[1] = rats, oral dosing

brain levels as share of that in plasma [1]: about 1%
Compound: COc1ccc2cc([C@H](C)C(=O)O)ccc2c1 [Naproxen]
potency at NF-kappaB inhibition relative to Ibuprofen (NF-KappaB; versus Ibuprofen): 3.5 times | potency at NF-kappaB inhibition relative to aspirin (NF-KappaB; versus aspirin): 6 times
